Drawing on article PMC7979813, this text covers binding for 1 substance.

The chains behind the UniProt entries cited, without tags or fusion partners. Where a name states a change or a piece, a line headed by the entry shows the natural chain unless it says otherwise.
UniProt G4MU73: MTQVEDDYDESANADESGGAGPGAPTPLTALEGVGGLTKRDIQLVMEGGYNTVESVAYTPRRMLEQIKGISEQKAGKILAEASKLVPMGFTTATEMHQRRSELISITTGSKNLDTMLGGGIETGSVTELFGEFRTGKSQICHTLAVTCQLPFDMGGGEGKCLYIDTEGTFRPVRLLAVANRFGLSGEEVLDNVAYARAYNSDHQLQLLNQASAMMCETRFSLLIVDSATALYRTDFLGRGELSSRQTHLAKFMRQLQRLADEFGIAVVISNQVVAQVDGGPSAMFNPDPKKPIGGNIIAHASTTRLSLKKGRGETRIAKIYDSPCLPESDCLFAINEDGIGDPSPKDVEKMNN
UniProt G4MU74: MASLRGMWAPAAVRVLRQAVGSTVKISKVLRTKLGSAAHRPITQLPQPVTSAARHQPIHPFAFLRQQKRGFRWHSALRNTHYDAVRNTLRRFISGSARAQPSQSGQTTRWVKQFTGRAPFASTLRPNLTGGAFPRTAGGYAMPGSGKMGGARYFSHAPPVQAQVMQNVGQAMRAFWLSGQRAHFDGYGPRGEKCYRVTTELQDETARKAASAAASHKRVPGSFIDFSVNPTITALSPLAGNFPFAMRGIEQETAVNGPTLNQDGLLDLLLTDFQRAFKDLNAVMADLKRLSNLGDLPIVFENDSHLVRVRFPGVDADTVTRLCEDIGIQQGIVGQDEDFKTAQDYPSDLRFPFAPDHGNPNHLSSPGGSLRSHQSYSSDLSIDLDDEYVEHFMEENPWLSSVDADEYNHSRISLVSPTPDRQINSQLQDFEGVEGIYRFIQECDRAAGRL

These are yes or no findings as the source states them, for the method shown. Binding can be weak; no strength is given.

In the experiment the target is Rhm51 (MGG_15576), yeast two-hybrid fusion (Pyricularia oryzae) (UniProt G4MU73). In words: two-hybrid.

Turning to “Ddnm1 (MGG_15577), yeast two-hybrid fusion (from UniProt G4MU74)”, the binding entry is “binds”.
